Drawing on patent US20250326816A1 (KOREA UNIVERSITY RESEARCH AND BUSINESS FOUNDATION, published 2025), this text covers binding for 15 molecules.

These are yes or no findings as the source states them, for the method shown. Some binding calls cover weakened binding; strength is not graded here. Sequences can lack the tags named with a protein.

The target of experiment [1] is T1, Dimeric human ICOS (ICOS-Fc) (human, UniProt Q9Y6W8 21-140).
T1 construct: range 21-140; Fc at the C-terminus of ICOS to induce dimerization; Labeled with Alexa488 when used as probe in the flow cytometry on yeast; also called ICOS-Fc dimer protein; ICOS dimer protein; not shown: GS linker of glycine and serine; Fc region (domain) of human IgG antibody
T1 sequence (looked up): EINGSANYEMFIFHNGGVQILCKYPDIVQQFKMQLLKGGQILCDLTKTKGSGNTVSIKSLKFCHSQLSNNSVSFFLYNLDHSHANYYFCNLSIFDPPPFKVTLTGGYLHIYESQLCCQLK
Description: ELISA, ICOS-Fc coated, variants serially diluted, anti-His-HRP. (In an ELISA, binding on a coated surface is turned into a signal by an enzyme label.)

Experiment [2] deals with T1, Dimeric human ICOS (ICOS-Fc). Description: ELISA, ICOS-Fc coated at 4 ug/ml, ICOS-L variant titrated, anti-His-HRP (x axis printed as PD-L1 CO…ON (nM)). The method, then:
(§1) After washing four times, 50 μl of an anti-His-HRP conjugate was added and reacted at room temperature for 1 hour, and then washed four times. Thereafter, 50 μl of a 1-Step Ultra TMB-ELISA substrate solution (Thermo Fisher Scientific, 34028) was added to develop color, and then added with 50 μl each of 2 M H₂SO₄ to terminate the reaction, and then analyzed using an Epoch microplate spectrophotometer (BioTek).

Experiment [3] shares this target. Description: ELISA, ICOS-Fc coated at 4 ug/ml, ICOS-L variant titrated, anti-His-HRP. The method, then:
as §1

Experiment [4] has the same target. Description: bio-layer interferometry (Octet R8), ICOS-Fc captured on Protein A biosensor, 600 s association and 600 s dissociation. (Biolayer interferometry detects binding as a change in optical thickness at a sensor tip.)
Substrate in experiment [5]: T2, ICOS monomer protein (ICOS E21-H129) (human) (UniProt Q9Y6W8)
T2 sequence (looked up): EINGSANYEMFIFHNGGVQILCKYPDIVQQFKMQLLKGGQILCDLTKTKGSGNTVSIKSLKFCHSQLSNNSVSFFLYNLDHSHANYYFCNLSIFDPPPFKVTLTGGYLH
Description: ELISA, ICOS-L-Fc coated, wild-type ICOS serially diluted, anti-His-HRP.

In experiment [6] the target is T1, Dimeric human ICOS (ICOS-Fc). Description: flow cytometry, yeast display, ICOS-Fc-Alexa488 67.7 nM. A general note: A flow cytometer gives signals particle by particle.

B1: ICOS-L variant Y8 (ligand)
chain: DTQEKEVRAMVGSDVELSCACPEGSRFDLNDVYVYWQTSESKTVVTYHIPPNSSLEHVDSRYRNRALMSPAGMLRGDFSLRLFNVTPQDEQKFHCLVLSQSLGFQEVLSVEVTLHVAANFSVPVVSAPHSPSQDELTFTCTSINGYPRPNVYWINKTDNSLLDQALQNDTVFLNMRGLYDVVSVLRIARTPSVNIGCCIENVLLQQNLTVGSQTGNDIGERDKITENPVSTGEKNAAT
Regarding B1, the binding entry in experiment [1], in experiment [2], in experiment [3] and in experiment [4] was “binds” in each case.

B2: ICOS-L variant Y8_H57N fused to antibody Fc domain (LALAPG) (Fc fusion, not shown: a dimerising Fc or GST; small tags and cut ends)
chain: DTQEKEVRAMVGSDVELSCACPEGSRFDLNDVYVYWQTSESKTVVTYHIPPNSSLENVDSRYRNRALMSPAGMLRGDFSLRLFNVTPQDEQKFHCLVLSQSLGFQEVLSVEVTLHVAANFSVPVVSAPHSPSQDELTFTCTSINGYPRPNVYWINKTDNSLLDQALQNDTVFLNMRGLYDVVSVLRIARTPSVNIGCCIENVLLQQNLTVGSQTGNDIGERDKITENPVSTGEKNAAT
Turning to B2, in experiment [5], the binding result was “binds”.

B3: ICOS-L variant Y48 displayed on yeast (ICOS-L-Aga2-FLAG format) (ligand, not shown: large carriers; small tags and cut ends)
chain: DTQEKEVRAMVGSDVELSCACPEGSRFDLNDVYVYWQTSESKTVVTYHIPPNSSLENVDSRYRNRALMSPAGMRRGDFSLRLFNVTPQDEQKFHCLVLSQSLGFQEVLSVEVTLHVAANFSVPVVSAPHSPSQDELTFTCTSINGYPRPNVYWINKTDNSLLDQALQNDTVFLNMRGLYDVVSVLRIARTPSVNIGCCIENVLLQQNLTVGSQTGNDIGERDKITENPVSTGEKNAAT
For the molecule B3, the binding entry in experiment [6] is on record as “binds”.

B4: ICOS-L variant Y35 displayed on yeast (ICOS-L-Aga2-FLAG format) (ligand, not shown: large carriers; small tags and cut ends)
chain: DTQDKEVRAMVGSDVELSCACPEGSRFDLNDVYVYWQTSESKTVVTYHIPPNSSLENVDSRYRNRALMSPAGMLRGDFSLRLFNVTPQDEQKFHCLVLSQSLGFQEVLSVEVTLHVAANFSVPVVSAPHSPSQDELTFTCTSINGYPRPNVYWINKTDNSLLDQALQNDTVFLNMRGLYDVVSVLRIARTPSVNIGCCIENVLLQQNLTVGSQTGNDIGERDKITENPVSTGEKNAAT
Turning to B4, the binding result in experiment [6] is “binds”.

B5: ICOS-L variant Y20 (ligand, not shown: small tags and cut ends)
chain: DTQEKEVRAMVGSDVELSCACPEGSRFDLNDVYVYWQTSESKTVVTYHIPQSSSLENVDSRYRNRALMSPAGMLRGDFSLRLFNVTPQDEQKFHCLVLSQSLGFQEVLSVEVTLHVAANFSVPVVSAPHSPSQDELTFTCTSINGYPRPNVYWINKTDNSLLDQALQNDTVFLNMRGLYDVVSVLRIARTPSVNIGCCIENVLLQQNLTVGSQTGNDIGERDKITENPVSTGERNAAT
In the case of B5, the binding entry in experiment [1] and in experiment [2] was “binds” each time.

B6: ICOS-L A184 variant fused to antibody Fc domain (LALAPG) (Fc fusion, not shown: a dimerising Fc or GST; small tags and cut ends)
chain: DTQEKEVRAMVGSDVELSCACPEGSRFDLNDVYVYWQTSESKTVVTYHIPQHSSLEYVDSRYRNRALMSPAGMLRGDFSLRLFNVTPQDEQKFHCLVLSPSLGFQEVLSVEVTLHVAANFSVPVVSAPHSPSQDELTFTCTSINGYPRPNVYWINKTDNSLLDQALQNDTVFLNMRGLYDVVSVLRIARTPSVNIGCCIENVLLQQNLTVGSQTGNDIGERDKITENPVSTGEKNAAT
In the case of B6, the binding result in experiment [5] is given as “binds”.

B7: ICOS-L variant Y20 displayed on yeast (ICOS-L-Aga2-FLAG format) (ligand, not shown: large carriers; small tags and cut ends)
chain: DTQEKEVRAMVGSDVELSCACPEGSRFDLNDVYVYWQTSESKTVVTYHIPQSSSLENVDSRYRNRALMSPAGMLRGDFSLRLFNVTPQDEQKFHCLVLSQSLGFQEVLSVEVTLHVAANFSVPVVSAPHSPSQDELTFTCTSINGYPRPNVYWINKTDNSLLDQALQNDTVFLNMRGLYDVVSVLRIARTPSVNIGCCIENVLLQQNLTVGSQTGNDIGERDKITENPVSTGERNAAT
With B7, the binding entry in experiment [6] is reported as “binds”.

B8: ICOS-L variant Y13 displayed on yeast (ICOS-L-Aga2-FLAG format) (ligand, not shown: large carriers; small tags and cut ends)
chain: DTQEKEVRAMVGSDVELSCACPEGSRFDLNDVYVYWQTSESKTVVTYHIPHNSNLENVDSRYRNRALMSPAGMLRGDFSLRLFNVTPQDEQKFHCLVLSQSLGFQEVLSVEVTLHVAANFSVPVVSAPHCPSQDELTFTCTSINGYPRPNVYWINKTDNSLLDQALQNDTVFLNMRGLYDVVSVLRIARTPSVNIGCCIENVLLQQNLTVGSQTGNDIGERDKITENPVSTGEKNAAT
Take B8: the binding result in experiment [6] was “binds”.

B9: ICOS-L variant Y48 (ligand, not shown: small tags and cut ends)
chain: DTQEKEVRAMVGSDVELSCACPEGSRFDLNDVYVYWQTSESKTVVTYHIPPNSSLENVDSRYRNRALMSPAGMRRGDFSLRLFNVTPQDEQKFHCLVLSQSLGFQEVLSVEVTLHVAANFSVPVVSAPHSPSQDELTFTCTSINGYPRPNVYWINKTDNSLLDQALQNDTVFLNMRGLYDVVSVLRIARTPSVNIGCCIENVLLQQNLTVGSQTGNDIGERDKITENPVSTGEKNAAT
Turning to B9, the binding entry in experiment [1] and in experiment [2] was “binds” throughout.

B10: ICOS-L variant Y13 (ligand, not shown: small tags and cut ends)
chain: DTQEKEVRAMVGSDVELSCACPEGSRFDLNDVYVYWQTSESKTVVTYHIPHNSNLENVDSRYRNRALMSPAGMLRGDFSLRLFNVTPQDEQKFHCLVLSQSLGFQEVLSVEVTLHVAANFSVPVVSAPHCPSQDELTFTCTSINGYPRPNVYWINKTDNSLLDQALQNDTVFLNMRGLYDVVSVLRIARTPSVNIGCCIENVLLQQNLTVGSQTGNDIGERDKITENPVSTGEKNAAT
Consider B10, for which the binding entry in experiment [1] and in experiment [2] was “binds” throughout.

B11: ICOS-L variant Y8 displayed on yeast (ICOS-L-Aga2-FLAG format) (ligand, not shown: large carriers; small tags and cut ends)
chain: DTQEKEVRAMVGSDVELSCACPEGSRFDLNDVYVYWQTSESKTVVTYHIPPNSSLEHVDSRYRNRALMSPAGMLRGDFSLRLFNVTPQDEQKFHCLVLSQSLGFQEVLSVEVTLHVAANFSVPVVSAPHSPSQDELTFTCTSINGYPRPNVYWINKTDNSLLDQALQNDTVFLNMRGLYDVVSVLRIARTPSVNIGCCIENVLLQQNLTVGSQTGNDIGERDKITENPVSTGEKNAAT
Regarding B11, the binding entry in experiment [6] is recorded as “binds”.

B12: ICOS-L variant Y35 (ligand, not shown: small tags and cut ends)
chain: DTQDKEVRAMVGSDVELSCACPEGSRFDLNDVYVYWQTSESKTVVTYHIPPNSSLENVDSRYRNRALMSPAGMLRGDFSLRLFNVTPQDEQKFHCLVLSQSLGFQEVLSVEVTLHVAANFSVPVVSAPHSPSQDELTFTCTSINGYPRPNVYWINKTDNSLLDQALQNDTVFLNMRGLYDVVSVLRIARTPSVNIGCCIENVLLQQNLTVGSQTGNDIGERDKITENPVSTGEKNAAT
Turning to B12, the binding result in experiment [1] and in experiment [2] was “binds” in each case.

B13: ICOS-L variant Y8 fused to antibody Fc domain (LALAPG) (Fc fusion, not shown: a dimerising Fc or GST; small tags and cut ends)
chain: DTQEKEVRAMVGSDVELSCACPEGSRFDLNDVYVYWQTSESKTVVTYHIPPNSSLEHVDSRYRNRALMSPAGMLRGDFSLRLFNVTPQDEQKFHCLVLSQSLGFQEVLSVEVTLHVAANFSVPVVSAPHSPSQDELTFTCTSINGYPRPNVYWINKTDNSLLDQALQNDTVFLNMRGLYDVVSVLRIARTPSVNIGCCIENVLLQQNLTVGSQTGNDIGERDKITENPVSTGEKNAAT
Consider B13, for which, in experiment [5], the binding entry was “binds”.

B14: ICOS-L variant Y8_H57N (ligand)
chain: DTQEKEVRAMVGSDVELSCACPEGSRFDLNDVYVYWQTSESKTVVTYHIPPNSSLENVDSRYRNRALMSPAGMLRGDFSLRLFNVTPQDEQKFHCLVLSQSLGFQEVLSVEVTLHVAANFSVPVVSAPHSPSQDELTFTCTSINGYPRPNVYWINKTDNSLLDQALQNDTVFLNMRGLYDVVSVLRIARTPSVNIGCCIENVLLQQNLTVGSQTGNDIGERDKITENPVSTGEKNAAT
notes: H57 of Y8 put back to N
As to B14, the binding result in experiment [1], in experiment [3] and in experiment [4] was “binds” in each case.

B15: ICOS-L variant Y8_P51Q (ligand)
chain: DTQEKEVRAMVGSDVELSCACPEGSRFDLNDVYVYWQTSESKTVVTYHIPQNSSLEHVDSRYRNRALMSPAGMLRGDFSLRLFNVTPQDEQKFHCLVLSQSLGFQEVLSVEVTLHVAANFSVPVVSAPHSPSQDELTFTCTSINGYPRPNVYWINKTDNSLLDQALQNDTVFLNMRGLYDVVSVLRIARTPSVNIGCCIENVLLQQNLTVGSQTGNDIGERDKITENPVSTGEKNAAT
notes: P51 of Y8 put back to Q; keeps N57H only
Regarding B15, the binding result in experiment [1], in experiment [3] and in experiment [4] was “binds” throughout.
